Laboratory results as given in patent publication US9073854B2, “Aromatic sulfonium salt compound” (ADEKA CORPORATION, priority 2009, dated 2015).

What was measured:
[1] = Negative resist composition: amount of energy of exposure required for cure; settings: compounds in the form of a hexafluoroantimonate, EPPN-201 resist, light of 405 nm
Procedure: Compound No. 5 and comparative compound No. 1 in the form of a hexafluoroantimonate were each synthesized. A resin solution was prepared by dissolving 100 g of EPPN-201 from Nippon Kayaku in 100 g of methyl ethyl ketone (MEK). A 0.05 g portion of each of the hexafluoroantimonate salts was dissolved in 8.00 g of the resin solution to obtain a resist solution. The resist solution was applied to an aluminum plate with a #9 bar coater and dried at 80° C. for 10 minutes. The resist was patternwise exposed to light using an ultrahigh pressure mercury lamp and a spectrometer, baked at 80° C. for 10 minutes, immersed in MEK for 30 seconds to be developed, and washed with xylene. An amount of energy of exposure required for cure was calculated from the pattern formed by irradiation with light of 405 nm.

[2] = Decomposition on exposure to light and resultant acid generation (titration); type: physicochemical; settings: 0.02 mmol/g acetonitrile solution; light of 365 nm, 0.8 mW/cm^2, 5 minutes; acid titer/theoretical mole number x 100
Procedure: A 0.02 mmol/g acetonitrile solution was prepared using each of compound Nos. 1 and 5 and comparative compound No. 1. A 5.00 g portion of the solution was put in a petri dish having an inner diameter of 93 mm and exposed to light of 365 nm at an irradiance of 0.8 mW/cm^2 for 5 minutes using a fluorescent lamp (FL10BL from Toshiba Corp.; tube length: 330 mm). The exposed solution was titrated with a 0.05 N ethanol solution of potassium hydroxide using BTB as a pH indicator. The titer as obtained was corrected by subtracting the titer of the solution before exposure determined in the same manner as a blank. The acid generation rate was calculated from the thus corrected titer according to the following formula. Acid generation rate(%)=acid titer(mol)/theoretical mole number of compound(mol)×100

| SMILES | Amount of Exposure (J/cm^2) [1] [J/cm^2] | Acid Generation Rate (%) [2] [%] |
| --- | --- | --- |
| Cn1c2ccccc2c(=O)c2cc([S+](c3ccc(F)cc3)c3ccc(F)cc3)ccc21 [Comp. Compound No. 1, reference compound] | 1.9 | 6.7 |
| Cn1c2ccccc2c(=O)c2cc([S+](c3ccc(O)cc3)c3ccc(O)cc3)ccc21 [Compound No. 1] |  | 35 |
| Cn1c2ccccc2c(=O)c2cc([S+](c3ccc(O)cc3)c3ccc(O)cc3)ccc21 [Compound No. 2] |  | 19 |
| O=c1c2ccccc2n(Cc2cccc(O)c2)c2ccc([S+](c3ccc(F)cc3)c3ccc(F)cc3)cc12 [Compound No. 5] | 0.1 |  |
